The structures given here were assigned with low confidence; some may be wrong.

By UniProt entry, the sequences of proteins in these tests, tags left out.
UniProt Q99572, whole entry: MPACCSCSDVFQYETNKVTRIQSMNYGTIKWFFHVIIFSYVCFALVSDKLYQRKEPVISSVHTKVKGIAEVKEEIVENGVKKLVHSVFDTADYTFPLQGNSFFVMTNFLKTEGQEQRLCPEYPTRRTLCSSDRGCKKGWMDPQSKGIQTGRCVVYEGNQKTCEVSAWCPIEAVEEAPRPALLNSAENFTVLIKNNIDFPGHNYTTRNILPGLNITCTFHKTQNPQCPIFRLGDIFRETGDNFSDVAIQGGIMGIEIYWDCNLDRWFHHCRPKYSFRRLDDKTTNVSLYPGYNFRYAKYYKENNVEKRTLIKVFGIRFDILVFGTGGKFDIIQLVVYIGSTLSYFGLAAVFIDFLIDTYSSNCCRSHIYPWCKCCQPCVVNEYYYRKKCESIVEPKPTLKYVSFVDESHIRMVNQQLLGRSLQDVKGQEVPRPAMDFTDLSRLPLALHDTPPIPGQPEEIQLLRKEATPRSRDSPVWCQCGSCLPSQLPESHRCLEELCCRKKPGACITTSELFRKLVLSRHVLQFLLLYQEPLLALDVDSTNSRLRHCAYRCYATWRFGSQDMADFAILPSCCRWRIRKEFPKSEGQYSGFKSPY

The assay concerns the target P2X7 receptor (UniProt Q99572). The assay is described as follows: pKi of Table 1 (assay not stated).

What is called pKi is the Ki on a negative log10 scale, so that one unit is a factor of ten. A low value points to a high Ki. For the compound `CCc1cc2c(cc1NC(=O)C1=CNC(=O)C[C@H]1c1ccc(F)cc1)NC(=O)CO2`, the negative logarithm of the Ki (pKi) came out at 5.775.

The record behind these values is patent US8372865B2, “Dihydropyridone amides as P2X7 modulators” (Roche Palo Alto LLC, priority 2008, dated 2013).
